Test results published in the supplement of paper PMC10077471.
In all, about 1,900 compounds were measured (“excess over highest single agent (ExcessHSA) synergy score, 6x6 matrix”: median about -83, lowest 2% from about -370 on). This is one part of the list.

These compounds were tested on NCI-H446 (assay: excess over highest single agent (ExcessHSA) synergy score, 6x6 matrix; higher = less synergy (more negative = stronger synergy)). Settings: 72 h; CellTiter-Glo viability.

Compared with `CC(=O)OCC(=O)[C@@]12N=C(C)O[C@@H]1C[C@H]1[C@@H]3CCC4=CC(=O)C=C[C@]4(C)[C@H]3[C@@H](O)C[C@@]12C` + Cc1sc2c(c1C)C(c1ccc(Cl)cc1)=N[C@@H](CC(=O)OC(C)(C)C)c1nnc(C)n1-2 [NCGC00250412-19], `C=C1C[C@@H]2[C@H](CC[C@]3(C)C(=O)CC[C@@H]23)[C@@]2(C)C=CC(=O)C=C12` + Cc1sc2c(c1C)C(c1ccc(Cl)cc1)=N[C@@H](CC(=O)OC(C)(C)C)c1nnc(C)n1-2 [NCGC00250412-19] is lower in “excess over highest single agent” value: -66.1 for the first, -73.6 for the second.

Compared with `C[C@@H](CN1CC(=O)NC(=O)C1)N1CC(=O)NC(=O)C1` + Cc1sc2c(c1C)C(c1ccc(Cl)cc1)=N[C@@H](CC(=O)OC(C)(C)C)c1nnc(C)n1-2 [NCGC00250412-19], `O=C1NC(=O)C(c2cnc3ccccn23)=C1c1cn2c3c(cccc13)CN(C(=O)N1CCOCC1)CC2` + Cc1sc2c(c1C)C(c1ccc(Cl)cc1)=N[C@@H](CC(=O)OC(C)(C)C)c1nnc(C)n1-2 [NCGC00250412-19] is higher in “excess over highest single agent” value: -70.8 for the first, -24.9 for the second.

First: Cc1nc2n(c(=O)c1CCN1CCC(c3noc4cc(F)ccc34)CC1)CCCC2 + Cc1sc2c(c1C)C(c1ccc(Cl)cc1)=N[C@@H](CC(=O)OC(C)(C)C)c1nnc(C)n1-2 [NCGC00250412-19]
Second: Cc1cnc(CNC(=O)c2c(=O)c3ccc(N4CCCN(C)CC4)nc3n3c2sc2ccccc23)cn1 + Cc1sc2c(c1C)C(c1ccc(Cl)cc1)=N[C@@H](CC(=O)OC(C)(C)C)c1nnc(C)n1-2 [NCGC00250412-19]
The “excess over highest single agent” value of the first is higher: -63.2 for the first, -259 for the second.

First: CC(=O)N[C@H]1[C@H]([C@H](O)[C@H](O)CO)OC(C(=O)O)=C[C@@H]1NC(=N)N + Cc1sc2c(c1C)C(c1ccc(Cl)cc1)=N[C@@H](CC(=O)OC(C)(C)C)c1nnc(C)n1-2 [NCGC00250412-19]
Second: COC[C@H](NC(=O)c1cnc(C)s1)C(=O)N[C@@H](COC)C(=O)N[C@@H](Cc1ccccc1)C(=O)[C@@]1(C)CO1 + Cc1sc2c(c1C)C(c1ccc(Cl)cc1)=N[C@@H](CC(=O)OC(C)(C)C)c1nnc(C)n1-2 [NCGC00250412-19]
The “excess over highest single agent” value of the first is higher: -46.3 for the first, -227 for the second.

First: N[C@@H](C(=O)N[C@@H]1C(=O)N2C(C(=O)O)=C(Cl)CS[C@H]12)c1ccccc1 + Cc1sc2c(c1C)C(c1ccc(Cl)cc1)=N[C@@H](CC(=O)OC(C)(C)C)c1nnc(C)n1-2 [NCGC00250412-19]
Second: O=C(N[C@@H](c1ccccc1)[C@@H]1CCCCN1)c1cccc(C(F)(F)F)c1Cl + Cc1sc2c(c1C)C(c1ccc(Cl)cc1)=N[C@@H](CC(=O)OC(C)(C)C)c1nnc(C)n1-2 [NCGC00250412-19]
The “excess over highest single agent” value of the first is higher: -60.6 for the first, -153 for the second.

Compared with `CC[C@@H]1/C=C(\C)C[C@H](C)C[C@H](OC)[C@H]2O[C@@](O)(C(=O)C(=O)N3CCCC[C@H]3C(=O)O[C@H](/C(C)=C/[C@@H]3CC[C@H](Cl)[C@H](OC)C3)[C@H](C)[C@@H](O)CC1=O)[C@H](C)C[C@@H]2OC` + Cc1sc2c(c1C)C(c1ccc(Cl)cc1)=N[C@@H](CC(=O)OC(C)(C)C)c1nnc(C)n1-2 [NCGC00250412-19], `C[C@]12COC(=O)C[C@@H]1CC[C@@H]1[C@@H]2CC[C@@]2(C)[C@H]1CC[C@]2(C)O` + Cc1sc2c(c1C)C(c1ccc(Cl)cc1)=N[C@@H](CC(=O)OC(C)(C)C)c1nnc(C)n1-2 [NCGC00250412-19] is lower in “excess over highest single agent” value: -132 for the first, -220 for the second.

Going from `Cc1cc(Nc2nc(N[C@@H](C)c3ncc(F)cn3)ncc2Cl)[nH]n1` + Cc1sc2c(c1C)C(c1ccc(Cl)cc1)=N[C@@H](CC(=O)OC(C)(C)C)c1nnc(C)n1-2 [NCGC00250412-19] to `COc1ccc2[nH]c([S+]([O-])Cc3ncc(C)c(OC)c3C)nc2c1` (centres undefined) + Cc1sc2c(c1C)C(c1ccc(Cl)cc1)=N[C@@H](CC(=O)OC(C)(C)C)c1nnc(C)n1-2 [NCGC00250412-19], the “excess over highest single agent” value rises from -46 to 45.9.

First: O=C(O)c1c(Cl)c(Cl)c(Cl)c(Cl)c1-c1c2cc(I)c(=O)c(I)c-2oc2c(I)c(O)c(I)cc12 + Cc1sc2c(c1C)C(c1ccc(Cl)cc1)=N[C@@H](CC(=O)OC(C)(C)C)c1nnc(C)n1-2 [NCGC00250412-19]
Second: CCOC(=O)c1c(C)n(C)c2ccc(O)cc12 + Cc1sc2c(c1C)C(c1ccc(Cl)cc1)=N[C@@H](CC(=O)OC(C)(C)C)c1nnc(C)n1-2 [NCGC00250412-19]
The “excess over highest single agent” value of the first is lower: -111 for the first, -56.1 for the second.

Going from `CN(CCOc1ccc(CC2SC(=O)NC2=O)cc1)c1ccccn1` (centres undefined) + Cc1sc2c(c1C)C(c1ccc(Cl)cc1)=N[C@@H](CC(=O)OC(C)(C)C)c1nnc(C)n1-2 [NCGC00250412-19] to `CCC(=O)NC[C@H](Cc1ccc(OCCc2nc(-c3ccccc3)oc2C)cc1)N/C(C)=C\C(=O)c1ccc(C(F)(F)F)cc1` + Cc1sc2c(c1C)C(c1ccc(Cl)cc1)=N[C@@H](CC(=O)OC(C)(C)C)c1nnc(C)n1-2 [NCGC00250412-19], the “excess over highest single agent” value rises from -182 to 200.

Going from `N#Cc1ccc(Oc2ccc3c(c2)COB3O)cc1` + Cc1sc2c(c1C)C(c1ccc(Cl)cc1)=N[C@@H](CC(=O)OC(C)(C)C)c1nnc(C)n1-2 [NCGC00250412-19] to `COc1nc(-c2ccc3c(c2)OCO3)n(-c2ccc(NC(=O)CSc3ccccc3)cc2)n1` + Cc1sc2c(c1C)C(c1ccc(Cl)cc1)=N[C@@H](CC(=O)OC(C)(C)C)c1nnc(C)n1-2 [NCGC00250412-19], the “excess over highest single agent” value rises from -39.2 to -11.

First: CC(N)C12CC3CC(CC(C3)C1)C2 (centres undefined) + Cc1sc2c(c1C)C(c1ccc(Cl)cc1)=N[C@@H](CC(=O)OC(C)(C)C)c1nnc(C)n1-2 [NCGC00250412-19]
Second: O=P1(N(CCCl)CCCl)NCCCO1 (centres undefined) + Cc1sc2c(c1C)C(c1ccc(Cl)cc1)=N[C@@H](CC(=O)OC(C)(C)C)c1nnc(C)n1-2 [NCGC00250412-19]
The “excess over highest single agent” value of the first is lower: -112 for the first, 93.6 for the second.

Going from `CCCc1nc(C(C)(C)O)c(C(=O)O)n1Cc1ccc(-c2ccccc2-c2nnn[nH]2)cc1` + Cc1sc2c(c1C)C(c1ccc(Cl)cc1)=N[C@@H](CC(=O)OC(C)(C)C)c1nnc(C)n1-2 [NCGC00250412-19] to `CC(=O)Nc1ccc(O)cc1` + Cc1sc2c(c1C)C(c1ccc(Cl)cc1)=N[C@@H](CC(=O)OC(C)(C)C)c1nnc(C)n1-2 [NCGC00250412-19], the “excess over highest single agent” value rises from -110 to -55.9.
